Measured values taken from publication PMC6270209, “Synthesis, Antimycobacterial Activity and In Vitro Cytotoxicity of 5-Chloro-N-phenylpyrazine-2-carboxamides” (Molecules, 2013).
Several values for one entry are separate records, joined by “and”; a condition that tells them apart may be missing. Identical values can stand only once. Like-named read-outs stand apart in the source and are kept apart here.

Experiments:
[1] = test system: Chinese hamster ovary (CHO-K1) cell line
[2] = test system: renal cell adenocarcinoma (ACHN) cell line
[3] = SI = IC50/MIC (M. tbc H37Rv), Table 2

SMILES | HepG2 SI (HepG2 cells; [3]) | CHO-K1 SI ([1]; SI = IC50/MIC (M. tbc H37Rv)) | ACHN SI ([2]; SI = IC50/MIC (M. tbc H37Rv)) | CHO-K1 SI [1] | ACHN SI [2] | HepG2 SI (HepG2 cells)
O=C(Nc1ccc(O)cc1)c1cnc(Cl)cn1 [Compound 4, 5-Chloro-N-(4-hydroxyphenyl)pyrazine-2-carboxamide] | 5.5 | 3.8 | 8.0 | – | – | –
O=C(Nc1ccc(C(=O)O)c(O)c1)c1cnc(Cl)cn1 [Compound 30, 4-(5-Chloropyrazine-2-carboxamido)-2-hydroxybenzoic acid] | – | – | – | 47 and 47.1 | 35 and 34.8 | –
O=C(Nc1cc(Cl)ccc1O)c1cnc(Cl)cn1 [Compound 21, 5-Chloro-N-(5-chloro-2-hydroxyphenyl)pyrazine-2-carboxamide] | 7.4 | 7.1 | 9.3 | – | – | –
NC(=O)c1cnc(Cl)cn1 [Compound 5-Cl-PZA, 5-chloropyrazine-2-carboxamide, reference compound] | – | – | – | 0.9 | – | 10.0
